Measurements as given in article PMC12723715.

The chains behind the UniProt entries cited, without tags or fusion partners.
UniProt Q99613: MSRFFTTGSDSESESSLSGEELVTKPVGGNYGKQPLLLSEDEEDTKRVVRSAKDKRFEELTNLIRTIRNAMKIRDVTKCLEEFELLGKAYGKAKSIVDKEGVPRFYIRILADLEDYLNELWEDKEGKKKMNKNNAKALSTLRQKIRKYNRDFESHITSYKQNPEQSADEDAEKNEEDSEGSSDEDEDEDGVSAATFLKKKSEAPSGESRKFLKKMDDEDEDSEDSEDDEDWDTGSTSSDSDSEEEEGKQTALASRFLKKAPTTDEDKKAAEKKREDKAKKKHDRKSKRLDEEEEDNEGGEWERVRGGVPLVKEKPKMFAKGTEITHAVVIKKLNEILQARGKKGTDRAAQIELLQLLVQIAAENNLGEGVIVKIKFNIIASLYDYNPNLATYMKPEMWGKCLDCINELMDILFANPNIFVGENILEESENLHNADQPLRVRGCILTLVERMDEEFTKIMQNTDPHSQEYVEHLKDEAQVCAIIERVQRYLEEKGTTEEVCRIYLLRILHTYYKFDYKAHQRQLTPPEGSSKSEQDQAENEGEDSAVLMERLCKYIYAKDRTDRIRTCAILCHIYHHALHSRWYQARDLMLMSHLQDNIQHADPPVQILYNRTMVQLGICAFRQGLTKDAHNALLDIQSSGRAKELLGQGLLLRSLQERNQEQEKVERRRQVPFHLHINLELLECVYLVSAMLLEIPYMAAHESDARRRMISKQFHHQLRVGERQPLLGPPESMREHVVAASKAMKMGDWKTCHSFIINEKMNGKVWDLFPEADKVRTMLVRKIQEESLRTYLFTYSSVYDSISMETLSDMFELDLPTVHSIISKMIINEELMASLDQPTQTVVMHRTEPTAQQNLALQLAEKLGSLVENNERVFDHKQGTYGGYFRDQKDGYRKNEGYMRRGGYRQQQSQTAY
UniProt O00303: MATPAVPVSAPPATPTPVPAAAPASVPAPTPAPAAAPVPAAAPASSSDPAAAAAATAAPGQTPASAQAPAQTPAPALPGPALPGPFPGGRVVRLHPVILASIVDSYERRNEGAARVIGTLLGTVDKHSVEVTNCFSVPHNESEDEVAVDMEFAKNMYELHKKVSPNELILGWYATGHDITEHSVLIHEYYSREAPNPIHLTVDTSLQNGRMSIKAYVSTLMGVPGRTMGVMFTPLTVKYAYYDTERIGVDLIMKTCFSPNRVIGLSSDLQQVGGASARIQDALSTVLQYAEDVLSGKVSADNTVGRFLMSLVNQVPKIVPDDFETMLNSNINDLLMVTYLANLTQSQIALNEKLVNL
UniProt Q9Y262: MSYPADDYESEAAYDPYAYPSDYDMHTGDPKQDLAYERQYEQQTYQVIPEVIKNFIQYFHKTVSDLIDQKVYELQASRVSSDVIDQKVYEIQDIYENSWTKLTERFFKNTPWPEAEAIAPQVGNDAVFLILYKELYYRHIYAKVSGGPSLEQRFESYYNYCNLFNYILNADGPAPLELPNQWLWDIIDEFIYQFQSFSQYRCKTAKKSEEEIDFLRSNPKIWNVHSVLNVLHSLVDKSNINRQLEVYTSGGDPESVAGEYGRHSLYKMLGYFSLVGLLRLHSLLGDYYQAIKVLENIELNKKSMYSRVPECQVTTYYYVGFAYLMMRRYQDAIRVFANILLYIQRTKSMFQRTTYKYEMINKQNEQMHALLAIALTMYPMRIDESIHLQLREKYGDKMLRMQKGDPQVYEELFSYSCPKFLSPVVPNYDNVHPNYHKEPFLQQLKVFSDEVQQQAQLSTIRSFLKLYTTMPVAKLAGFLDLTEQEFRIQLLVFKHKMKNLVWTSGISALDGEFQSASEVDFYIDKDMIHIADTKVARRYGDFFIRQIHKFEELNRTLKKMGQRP
UniProt Q9UBQ5: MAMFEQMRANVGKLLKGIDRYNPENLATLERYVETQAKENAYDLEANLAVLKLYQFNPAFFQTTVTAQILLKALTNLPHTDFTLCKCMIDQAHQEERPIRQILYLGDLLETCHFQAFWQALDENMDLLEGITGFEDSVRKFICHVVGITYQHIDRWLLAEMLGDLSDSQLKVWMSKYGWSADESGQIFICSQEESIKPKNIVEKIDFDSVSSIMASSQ

These substances were tested against human eIF3c with C-terminal Strep tag (human) (UniProt Q99613) (assay: affinity purification with mass spectrometry; large scale: Hi5 lysate (co-infection pBIG2AB/CD) on StrepTrap XT column via Strep tag on eIF3c, wash with 300 mM KCl, biotin elution; then Heparin column and Superose 6 SEC (150 mM KCl); SDS-PAGE, Western blot and mass spectrometry of the complex).

binding | Substance
binds | human eIF3f (from UniProt O00303 1-357)
binds | human eIF3l (from UniProt Q9Y262 1-564)
binds | human eIF3k (from UniProt Q9UBQ5 1-218)

No constants are given. Whether binding was seen depends on the method and setting. Binding seen in cells or lysates may run through a third protein. These calls come from enrichment with a bait or labelling near it, and not all partners need be listed.
